# Data as given in patent US20050118611.
# Amino acid sequences for entries named in this document (tags omitted).
# UniProt Q04206, whole entry: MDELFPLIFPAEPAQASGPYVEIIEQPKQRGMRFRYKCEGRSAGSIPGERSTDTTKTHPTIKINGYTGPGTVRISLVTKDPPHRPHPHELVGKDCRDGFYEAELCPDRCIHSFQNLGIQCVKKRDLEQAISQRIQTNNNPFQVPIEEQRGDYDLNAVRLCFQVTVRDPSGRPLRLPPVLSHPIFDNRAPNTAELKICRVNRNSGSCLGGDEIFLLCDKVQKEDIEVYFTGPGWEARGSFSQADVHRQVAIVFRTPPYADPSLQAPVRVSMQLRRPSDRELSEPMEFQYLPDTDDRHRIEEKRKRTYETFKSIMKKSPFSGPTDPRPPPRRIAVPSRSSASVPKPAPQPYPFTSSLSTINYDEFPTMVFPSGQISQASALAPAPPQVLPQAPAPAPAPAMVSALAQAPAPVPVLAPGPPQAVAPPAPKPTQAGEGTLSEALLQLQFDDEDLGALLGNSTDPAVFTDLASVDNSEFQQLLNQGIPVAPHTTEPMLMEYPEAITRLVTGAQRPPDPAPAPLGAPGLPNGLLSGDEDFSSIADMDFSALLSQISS
# For part of these data: At least one result comes from cells or an extract, where the contact may be indirect. For part of these data: Tags and fusion partners may be left off the protein sequences shown. For part of these data: The exact form of at least one protein or probe is not confirmed.
# How the values were obtained:
# [1] = target: T1, p105 (p50 precursor) or p50/p50, endogenous nuclear extract (UniProt P25799); test: binding assay; details: six phosphorodithioates (S2): top CCAGGAGATS2TS2CCAC, bottom 3'-GGS2TCCS2TCS2TAAGGS2TG-5'; SELDI MS capture from nuclear extract; protein in an extract; protein details: MW ~105,591 by SELDI; variant of CK-14 phosphodiester 14-mer duplex
# T1 sequence (looked up, limits assumed): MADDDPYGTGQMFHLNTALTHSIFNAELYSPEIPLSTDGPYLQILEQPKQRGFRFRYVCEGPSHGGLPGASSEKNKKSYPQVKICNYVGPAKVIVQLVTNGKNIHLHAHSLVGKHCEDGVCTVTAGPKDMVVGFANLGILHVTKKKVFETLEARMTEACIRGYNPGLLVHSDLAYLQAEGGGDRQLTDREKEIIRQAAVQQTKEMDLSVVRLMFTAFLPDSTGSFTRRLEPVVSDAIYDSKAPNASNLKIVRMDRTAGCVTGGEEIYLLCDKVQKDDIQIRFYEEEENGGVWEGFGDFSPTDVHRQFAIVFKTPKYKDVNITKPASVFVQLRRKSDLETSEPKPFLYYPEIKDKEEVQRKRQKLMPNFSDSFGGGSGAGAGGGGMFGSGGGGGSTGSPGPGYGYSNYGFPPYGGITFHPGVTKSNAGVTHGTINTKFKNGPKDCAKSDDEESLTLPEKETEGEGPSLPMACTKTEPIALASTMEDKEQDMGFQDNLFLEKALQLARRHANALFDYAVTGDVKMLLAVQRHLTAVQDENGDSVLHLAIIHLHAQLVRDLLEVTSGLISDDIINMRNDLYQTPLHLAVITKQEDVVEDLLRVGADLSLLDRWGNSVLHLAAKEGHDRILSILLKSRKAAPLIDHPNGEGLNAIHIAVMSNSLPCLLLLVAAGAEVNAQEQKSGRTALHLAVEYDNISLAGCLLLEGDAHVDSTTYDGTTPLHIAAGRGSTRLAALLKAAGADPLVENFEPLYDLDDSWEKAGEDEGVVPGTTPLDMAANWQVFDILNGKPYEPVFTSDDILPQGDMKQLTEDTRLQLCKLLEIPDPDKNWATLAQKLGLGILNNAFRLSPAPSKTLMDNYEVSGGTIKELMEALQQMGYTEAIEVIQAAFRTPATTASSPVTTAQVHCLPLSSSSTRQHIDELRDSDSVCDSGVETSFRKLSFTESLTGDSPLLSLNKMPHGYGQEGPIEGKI
# [2] = tested on: AP-1 proteins endogenous, 70Z/3 pre-B cell nuclear extract; test: EMSA; details: six phosphorodithioates (S2): top CCAGTS2GACTS2CAGTS2G, bottom 3'-GGS2TCACS2TGAGS2TCAC-5'; specific binding in 70Z/3 nuclear extract; protein in an extract
# [3] = target: NF-κB p65 (RelA) homodimer (UniProt Q04206); test: SELEX; details: phosphorothioate (S) at all dA positions
sequence,measurement,setting,value
CCAGGAGATTCCAC (double strand) [XBY-6],binding result,[1],binds
CCAGTGACTCAGTG (double strand) [XBY-S2],binding result,[2],binds
GGGCGTATATGTGTGGCGGGGG (double strand) [p65 thioselected 22-mer (10 rounds)],selection result,[3],selected
